Results reported in PubChem BioAssay AID493014 (National Center for Advancing Translational Sciences (NCATS), 2011).
Some of the results follow. These are further read-outs of the screen, such as a control signal, another cell line or another target. No call is given for them. Compounds called inactive in the main read-out are mostly missing here. Words in brackets tell the shape of the fitted curve; partial curves, single points and poor fits give uncertain potencies.

Experiment: qHTS Assay to Find Inhibitors of Chronic Active B-Cell Receptor Signaling
Conditions: ABC-DLBCL IkBa-CBG/CBR reporter, luminescence ratio (green luciferase fused to IkBa over red control in TMD8 lymphoma cells), 4 h
Summary of the method: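 Compounds up to 46 uM were incubated four hours with TMD8 cells whose green CBG68 luciferase is fused to IkappaBalpha; red CBR luminescence normalised the signal, and concentration-effect curves were fitted to fusion, red and ratio data.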

[1] = measured here: CBR red luminescence, cell number
[2] = measured here: IkBa-CBG green luminescence

SMILES | AC50 [1] | AC50 [2]
COc1ccc(NC(=O)Cn2cccc2)cc1Cl | 12.6 µM [rising, partial curve, poor fit] | 
Cn1ccc2cc(-c3csc(N4CCC(C(N)=O)CC4)n3)ccc21 | 3.66 µM [rising, full curve] | 
CC(=O)c1sc(NC(=O)c2c(F)cccc2F)nc1C | 6.51 µM [falling, partial curve] | 
Cc1ccc2nc(N3CCN(C(=O)c4ccco4)CC3)sc2c1 | 1.84 µM [rising, full curve] | 
CN(C)c1ccc(C(CNC(=O)c2ccccc2)c2c[nH]c3ccccc23)cc1 (centres undefined) | 29.1 µM [falling, single point] | 
O=C(CCl)Nc1cccc(S(=O)(=O)NC2=NCCCCC2)c1 |  | 16.4 µM [falling, partial curve]
Cn1ccc(C(=O)Oc2ccc(C(=O)Nc3ccc(F)cc3F)cc2)n1 | 0.891 µM [falling, full curve, poor fit] | 
CCn1cc2nc(SCC(=O)Nc3ccc(F)cc3F)n(Cc3ccccc3)c(=O)c2n1 | 8.91 µM [falling, partial curve, poor fit] | 
CC(C)CCNC(=O)C1(O)c2ccccc2NC(=O)N1c1ccc(Cl)cc1 (centres undefined) | 0.447 µM [rising, full curve] | 
CC(C)(C)c1[nH]nc2c1C(c1ccoc1)C(C#N)=C(N)O2 (centres undefined) | 9.2 µM [falling, partial curve, poor fit] | 23.1 µM [rising, partial curve, poor fit]
Cc1cccc(C(=O)NC(=S)N2CCc3ccccc3C2)c1 | 25.9 µM [rising, partial curve] | 
COc1ccc(CCNC(=O)c2cnc(Cl)c(Cl)c2)cc1 | 25.1 µM [falling, single point] | 
Cc1cccc(NC(=O)c2ccc(COc3cccc4ccccc34)o2)n1 | 18.4 µM [falling, single point] | 
Cc1cc(NC(=O)/C=C/c2ccco2)ccc1NC(=O)c1ccccc1 | 8.91 µM [falling, partial curve, poor fit] | 
CCOC(=O)c1cc(=O)n2c(nc3ccccc32)[nH]1 | 23.1 µM [falling, partial curve] | 
CCOC(CCn1c(SCC(=O)Nc2cc(C)on2)nc2ccccc2c1=O)OCC | 35.5 µM [rising, single point] | 
CCN1C(=O)[C@H]2[C@@H](c3ccc(C)cc3)N3C(=O)N(c4cccc(Br)c4)C(=O)[C@@]3(CC(C)C)[C@H]2C1=O | 16.4 µM [falling, partial curve, poor fit] | 
COc1ccc2c3c([nH]c2c1)C1(NCC3)C(=O)Nc2ccccc21 (centres undefined) | 35.5 µM [falling, single point] | 
O=C(C1=C(O)C(=O)N(CCN2CCOCC2)C1c1ccccn1)c1cccs1 (centres undefined) | 16.4 µM [falling, single point] | 
CCOC(=O)c1ccn(-c2nc(-c3ccco3)cc(C(F)(F)F)n2)n1 | 20.6 µM [falling, partial curve, poor fit] | 
NS(=O)(=O)c1ccc(NC(=O)COC(=O)c2c3c(nc4ccccc24)/C(=C\c2ccc4c(c2)OCO4)CCC3)cc1 | 7.31 µM [rising, partial curve, poor fit] | 

A stretch from the list above, as a working copy:
SMILES | AC50 [1] | AC50 [2]
COc1ccc2c3c([nH]c2c1)C1(NCC3)C(=O)Nc2ccccc21 (centres undefined) | 35.5 µM [falling, single point] | 
O=C(C1=C(O)C(=O)N(CCN2CCOCC2)C1c1ccccn1)c1cccs1 (centres undefined) | 16.4 µM [falling, single point] | 
CCOC(=O)c1ccn(-c2nc(-c3ccco3)cc(C(F)(F)F)n2)n1 | 20.6 µM [falling, partial curve, poor fit] | 
NS(=O)(=O)c1ccc(NC(=O)COC(=O)c2c3c(nc4ccccc24)/C(=C\c2ccc4c(c2)OCO4)CCC3)cc1 | 7.31 µM [rising, partial curve, poor fit] | 

(list continues)

SMILES | AC50 [1] | AC50 [2]
Cc1ccc(NC(=O)c2ccc(OC(=O)COc3ccc(Cl)cc3C)cc2)cc1 | 4.11 µM [falling, full curve] | 
CCc1ccc(C2=NN(CCC(=O)NC(C)CCc3ccccc3)C(=O)CC2)cc1 (centres undefined) | 12.6 µM [falling, partial curve, poor fit] | 
Cc1oc2c(O)c(O)ccc2c(=O)c1-c1ccc(Cl)cc1 | 14.1 µM [rising, single point] | 
CCCCCOC(=O)NCC(O)c1ccccc1 (centres undefined) | 8.91 µM [falling, partial curve] | 
CCOc1ccc(-c2cn3ccccc3n2)cc1[N+](=O)[O-] | 29.1 µM [rising, single point] | 
O=C(c1ccccc1)c1c[nH]c(C(=O)NNc2cccc(Cl)n2)c1 | 14.1 µM [falling, single point] | 
CCN(CC(=O)Nc1c(F)cccc1F)C(=O)c1ccc2c(c1)S(=O)(=O)N=C1CCCCCN12 | 16.4 µM [falling, partial curve, poor fit] | 
Cc1cc(C(=O)OC(C)C(=O)Nc2nc(-c3ccccc3)cs2)c(C)o1 (centres undefined) | 7.31 µM [falling, partial curve] | 
COc1ccc(N(C)S(=O)(=O)c2ccc(Cl)c(C(=O)NCCc3ccc(Cl)cc3)c2)cc1 | 14.1 µM [falling, single point] | 
O=[N+]([O-])/C=C\c1ccc(N2CCCC2)c(F)c1 | 31.6 µM [rising, single point] | 
N#CCCN1C(=O)C2(OCCO2)c2ccccc21 | 0.1 µM [rising, full curve, poor fit] | 
O=C(Nc1ccc2c(c1)nc1n2CCSC1)c1ccccc1 | 6.51 µM [falling, partial curve] | 
O=C(NC(=S)Nc1cc([N+](=O)[O-])ccc1O)c1ccc2c(c1)OCO2 | 1.58 µM [falling, full curve] | 
Cc1cc(C(=O)Nc2cnn(Cc3ccc(Cl)cc3Cl)c2)no1 | 11.2 µM [falling, partial curve, poor fit] | 
CCN(CC)S(=O)(=O)c1ccc(N2CCc3ccccc3C2)nc1 | 8.91 µM [falling, partial curve, poor fit] | 
O=C(N/N=C/c1ccc([N+](=O)[O-])o1)c1ccc(O)cc1 | 2.59 µM [falling, full curve] | 
O=C(COC(=O)CN1C(=O)C2CCCCC2C1=O)Nc1cc(S(=O)(=O)N2CCOCC2)ccc1Cl (centres undefined) | 18.4 µM [rising, partial curve, poor fit] | 
Cn1nc(-c2ccc(Cl)cc2)nc2c(=O)n(C)c(=O)nc1-2 | 0.708 µM [falling, full curve] | 35.5 µM [rising, partial curve, poor fit]
Cc1cc(O)c2c(CN3CCN(Cc4ccccc4)CC3)cc(=O)oc2c1 | 11.2 µM [falling, single point] | 
COc1ccccc1CN1CCN(C(=O)c2ccco2)CC1 | 35.5 µM [rising, single point] | 
C/C(=N\Nc1ccc(C(=O)O)cc1)c1ccc(S(=O)(=O)NCc2ccco2)cc1 | 3.16 µM [falling, full curve] | 

SMILES | AC50 [1] | AC50 [2]
Cc1cc(C)cc(OCc2ccc(C(=O)NN)o2)c1 | 1.78 µM [falling, full curve] | 
Cn1nc(C(=O)NCc2ccc(F)cc2)c2ccccc2c1=O | 7.94 µM [rising, partial curve, poor fit] | 
O=C(c1ccncc1)N(c1ccc2oc3c(c2c1)CCCC3)S(=O)(=O)c1ccc(F)cc1 |  | 29.1 µM [rising, partial curve, poor fit]
Cc1cc(OCC(=O)N(C)Cc2ccccc2)cc(C)c1Cl | 11.2 µM [rising, partial curve] | 
O=C(Cc1ccc([N+](=O)[O-])cc1)Nc1ccon1 | 0.112 µM [rising, full curve] | 
O=C(O)CCN1C(=O)/C(=C\c2ccc(OCc3ccccc3)c(OCc3ccccc3)c2)SC1=S | 7.94 µM [falling, partial curve, poor fit] | 
Cn1nnc2c(NCc3ccccc3)ncnc21 | 11.2 µM [falling, single point] | 
CN(c1cccc(NC(=O)CN(c2ccc(Cl)c(Cl)c2)S(=O)(=O)c2ccccc2)c1)S(C)(=O)=O | 10.3 µM [falling, single point] | 20.6 µM [rising, partial curve, poor fit]
Cn1c(=O)c2[nH]c(N3CCN(c4ccccn4)CC3)nc2n(C)c1=O | 0.631 µM [falling, full curve, poor fit] | 
Cc1ccccc1Nc1nc(-c2sc(NC(=O)c3ccc([N+](=O)[O-])cc3)nc2C)cs1 | 11.2 µM [falling, partial curve, poor fit] | 
COc1ccc(Cl)cc1NC(=O)C(=O)N/N=C/c1cc(C)n(-c2ccc(C)cc2)c1C | 5.8 µM [falling, full curve] | 
O=C(NCC1CCCO1)c1ccc(Br)c(S(=O)(=O)N2CCOCC2)c1 (centres undefined) | 2.59 µM [rising, single point] | 
O=C(Nc1ccc(Br)cc1)c1cc(-c2ccncc2)nc2ccccc12 |  | 32.6 µM [falling, partial curve, poor fit]
O=S(=O)(c1cccc2cccnc12)N1CCN(c2ccccn2)CC1 | 17.8 µM [falling, partial curve, poor fit] | 
CCC(C)(C)n1nnnc1C(c1cc2cccc(C)c2[nH]c1=O)N1CCN(C(=O)c2ccco2)CC1 (centres undefined) | 35.5 µM [rising, partial curve, poor fit] | 
O=C(NCCN1CCOCC1)c1cc2ccccc2[nH]1 | 16.4 µM [rising, partial curve, poor fit] | 
Cc1nn(-c2ccccc2)c(C)c1C(=O)OC(C)C(=O)NC1CCCCC1 (centres undefined) | 0.0517 µM [rising, full curve, poor fit] | 
COc1ccc(N/N=C(\C#N)C(=N)SCc2ccccc2)cc1 | 2.51 µM [falling, partial curve] | 
CC[C@]12c3[nH]c4cc(-c5ccco5)ccc4c3CCN1C(=O)[C@@H](CC(=O)NCCc1ccccn1)C[C@@H]2C(=O)N1CCN(C(=O)c2ccco2)CC1 | 7.31 µM [rising, partial curve, poor fit] | 
